Results are given in words; binding and its absence hold for the method and conditions named. Binding seen in cells or lysates may run through a third protein. These calls come from enrichment with a bait or labelling near it, and not all partners need be listed.
Molecular target: S. pombe Lsm3 (S. pombe) (UniProt Q9Y7M4)
Test: co-purification (affinity and anion-exchange chromatography, chains confirmed by electrospray mass spectrometry); wild-type Lsm1–7 coexpressed in E. coli; IMAC, glutathione agarose (GST on Lsm3), TEV protease, HiTrapQ

The chains behind the UniProt entries cited, without tags or fusion partners. Residues count along the entry.
UniProt Q9Y7M4: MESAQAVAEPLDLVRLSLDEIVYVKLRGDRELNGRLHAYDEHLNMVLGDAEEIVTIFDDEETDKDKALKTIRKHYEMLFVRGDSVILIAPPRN
UniProt O42978, residues 2-80: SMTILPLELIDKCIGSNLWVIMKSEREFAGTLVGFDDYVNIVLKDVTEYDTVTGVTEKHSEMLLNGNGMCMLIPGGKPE

With “S. pombe Lsm5 (from UniProt O42978 2-80)” the binding was “binds”.
